# Assay results from the supplement of paper PMC12823440, “Inhibitors supercharge kinase turnover through native proteolytic circuits” (Nature, 2025).
# Chains of the proteins cited; added tags and fusions are not shown. Lines headed by an entry give the natural chain unless they say otherwise; changes in a name come on top.
# UniProt Q05397, whole entry, looked up: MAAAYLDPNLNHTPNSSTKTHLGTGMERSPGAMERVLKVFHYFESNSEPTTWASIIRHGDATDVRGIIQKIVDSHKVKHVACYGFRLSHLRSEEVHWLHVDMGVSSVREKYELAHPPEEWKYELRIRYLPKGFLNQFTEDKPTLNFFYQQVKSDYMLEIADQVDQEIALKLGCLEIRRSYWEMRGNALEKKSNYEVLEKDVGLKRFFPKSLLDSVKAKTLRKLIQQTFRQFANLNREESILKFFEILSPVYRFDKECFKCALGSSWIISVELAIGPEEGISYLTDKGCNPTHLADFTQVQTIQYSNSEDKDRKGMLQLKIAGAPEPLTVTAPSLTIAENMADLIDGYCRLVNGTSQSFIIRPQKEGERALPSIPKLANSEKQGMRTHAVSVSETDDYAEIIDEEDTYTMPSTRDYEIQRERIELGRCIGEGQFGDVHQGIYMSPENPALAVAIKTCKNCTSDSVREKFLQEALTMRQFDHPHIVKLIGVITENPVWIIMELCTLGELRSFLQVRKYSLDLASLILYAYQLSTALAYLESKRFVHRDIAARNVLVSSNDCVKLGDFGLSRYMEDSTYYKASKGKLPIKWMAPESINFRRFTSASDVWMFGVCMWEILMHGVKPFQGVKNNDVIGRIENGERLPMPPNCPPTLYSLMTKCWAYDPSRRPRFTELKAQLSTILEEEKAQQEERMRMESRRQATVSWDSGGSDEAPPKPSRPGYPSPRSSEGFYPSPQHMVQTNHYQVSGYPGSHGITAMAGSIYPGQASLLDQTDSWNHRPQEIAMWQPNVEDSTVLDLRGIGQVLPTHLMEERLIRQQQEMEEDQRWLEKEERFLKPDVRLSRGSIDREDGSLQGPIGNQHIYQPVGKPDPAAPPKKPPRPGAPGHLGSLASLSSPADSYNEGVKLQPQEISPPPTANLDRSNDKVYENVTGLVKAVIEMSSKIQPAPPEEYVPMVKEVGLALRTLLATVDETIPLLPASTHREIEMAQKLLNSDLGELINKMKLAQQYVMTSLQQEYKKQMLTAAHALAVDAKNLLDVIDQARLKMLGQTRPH
# UniProt Q14289, whole entry, looked up: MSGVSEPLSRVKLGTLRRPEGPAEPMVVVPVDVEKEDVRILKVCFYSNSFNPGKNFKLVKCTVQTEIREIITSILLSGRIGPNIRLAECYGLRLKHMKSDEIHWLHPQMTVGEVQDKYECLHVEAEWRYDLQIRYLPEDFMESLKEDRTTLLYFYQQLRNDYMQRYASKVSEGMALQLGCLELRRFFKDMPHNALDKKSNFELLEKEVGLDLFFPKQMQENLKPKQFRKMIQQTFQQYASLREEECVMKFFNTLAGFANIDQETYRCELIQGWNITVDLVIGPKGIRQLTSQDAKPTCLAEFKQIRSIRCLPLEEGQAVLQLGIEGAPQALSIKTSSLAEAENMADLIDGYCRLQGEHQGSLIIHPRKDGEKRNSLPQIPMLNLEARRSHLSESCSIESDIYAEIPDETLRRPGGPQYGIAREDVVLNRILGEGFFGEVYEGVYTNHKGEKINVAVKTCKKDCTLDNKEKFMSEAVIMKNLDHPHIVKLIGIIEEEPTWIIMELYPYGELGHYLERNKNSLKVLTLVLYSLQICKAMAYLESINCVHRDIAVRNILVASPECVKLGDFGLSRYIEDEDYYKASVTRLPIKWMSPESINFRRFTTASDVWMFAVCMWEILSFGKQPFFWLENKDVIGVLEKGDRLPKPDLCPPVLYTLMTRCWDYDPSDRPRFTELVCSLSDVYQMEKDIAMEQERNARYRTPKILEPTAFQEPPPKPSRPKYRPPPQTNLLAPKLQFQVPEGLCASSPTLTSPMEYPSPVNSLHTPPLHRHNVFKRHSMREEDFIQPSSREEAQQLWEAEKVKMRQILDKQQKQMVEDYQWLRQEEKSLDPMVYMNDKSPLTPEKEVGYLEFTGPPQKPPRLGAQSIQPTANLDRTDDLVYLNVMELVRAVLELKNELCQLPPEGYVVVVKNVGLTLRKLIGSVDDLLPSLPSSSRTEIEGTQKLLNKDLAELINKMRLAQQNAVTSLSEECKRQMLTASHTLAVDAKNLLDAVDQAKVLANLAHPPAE
# UniProt P07949, whole entry, looked up: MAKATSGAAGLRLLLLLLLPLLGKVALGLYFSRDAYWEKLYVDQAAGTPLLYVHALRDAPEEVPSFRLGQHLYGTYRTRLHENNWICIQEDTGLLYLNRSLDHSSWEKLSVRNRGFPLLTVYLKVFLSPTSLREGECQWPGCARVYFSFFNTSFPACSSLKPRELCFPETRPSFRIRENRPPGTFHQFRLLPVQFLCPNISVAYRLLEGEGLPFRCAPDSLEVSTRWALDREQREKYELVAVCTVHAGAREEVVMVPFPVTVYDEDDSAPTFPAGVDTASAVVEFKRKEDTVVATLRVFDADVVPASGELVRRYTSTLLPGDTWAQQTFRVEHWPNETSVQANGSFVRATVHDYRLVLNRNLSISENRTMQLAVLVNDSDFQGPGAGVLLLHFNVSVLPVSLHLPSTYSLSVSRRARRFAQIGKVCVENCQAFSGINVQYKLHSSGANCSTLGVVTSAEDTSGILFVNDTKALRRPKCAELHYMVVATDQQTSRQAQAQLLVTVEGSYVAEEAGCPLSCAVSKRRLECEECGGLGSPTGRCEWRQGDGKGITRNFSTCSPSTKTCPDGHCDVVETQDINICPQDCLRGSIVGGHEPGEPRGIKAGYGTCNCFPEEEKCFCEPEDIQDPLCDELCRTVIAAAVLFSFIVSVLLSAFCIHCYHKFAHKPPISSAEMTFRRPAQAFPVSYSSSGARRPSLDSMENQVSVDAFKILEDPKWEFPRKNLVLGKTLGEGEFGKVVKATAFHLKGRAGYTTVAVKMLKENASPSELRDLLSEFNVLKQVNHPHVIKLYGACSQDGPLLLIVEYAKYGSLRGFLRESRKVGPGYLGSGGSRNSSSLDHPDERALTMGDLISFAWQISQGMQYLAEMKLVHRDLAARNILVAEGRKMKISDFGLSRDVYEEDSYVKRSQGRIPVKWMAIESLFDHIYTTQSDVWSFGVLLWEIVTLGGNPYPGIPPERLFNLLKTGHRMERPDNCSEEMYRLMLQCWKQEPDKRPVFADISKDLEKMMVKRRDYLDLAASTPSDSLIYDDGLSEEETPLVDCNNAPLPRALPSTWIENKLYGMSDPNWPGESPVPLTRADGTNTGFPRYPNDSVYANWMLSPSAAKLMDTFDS
# UniProt P07949, whole entry M918T, looked up: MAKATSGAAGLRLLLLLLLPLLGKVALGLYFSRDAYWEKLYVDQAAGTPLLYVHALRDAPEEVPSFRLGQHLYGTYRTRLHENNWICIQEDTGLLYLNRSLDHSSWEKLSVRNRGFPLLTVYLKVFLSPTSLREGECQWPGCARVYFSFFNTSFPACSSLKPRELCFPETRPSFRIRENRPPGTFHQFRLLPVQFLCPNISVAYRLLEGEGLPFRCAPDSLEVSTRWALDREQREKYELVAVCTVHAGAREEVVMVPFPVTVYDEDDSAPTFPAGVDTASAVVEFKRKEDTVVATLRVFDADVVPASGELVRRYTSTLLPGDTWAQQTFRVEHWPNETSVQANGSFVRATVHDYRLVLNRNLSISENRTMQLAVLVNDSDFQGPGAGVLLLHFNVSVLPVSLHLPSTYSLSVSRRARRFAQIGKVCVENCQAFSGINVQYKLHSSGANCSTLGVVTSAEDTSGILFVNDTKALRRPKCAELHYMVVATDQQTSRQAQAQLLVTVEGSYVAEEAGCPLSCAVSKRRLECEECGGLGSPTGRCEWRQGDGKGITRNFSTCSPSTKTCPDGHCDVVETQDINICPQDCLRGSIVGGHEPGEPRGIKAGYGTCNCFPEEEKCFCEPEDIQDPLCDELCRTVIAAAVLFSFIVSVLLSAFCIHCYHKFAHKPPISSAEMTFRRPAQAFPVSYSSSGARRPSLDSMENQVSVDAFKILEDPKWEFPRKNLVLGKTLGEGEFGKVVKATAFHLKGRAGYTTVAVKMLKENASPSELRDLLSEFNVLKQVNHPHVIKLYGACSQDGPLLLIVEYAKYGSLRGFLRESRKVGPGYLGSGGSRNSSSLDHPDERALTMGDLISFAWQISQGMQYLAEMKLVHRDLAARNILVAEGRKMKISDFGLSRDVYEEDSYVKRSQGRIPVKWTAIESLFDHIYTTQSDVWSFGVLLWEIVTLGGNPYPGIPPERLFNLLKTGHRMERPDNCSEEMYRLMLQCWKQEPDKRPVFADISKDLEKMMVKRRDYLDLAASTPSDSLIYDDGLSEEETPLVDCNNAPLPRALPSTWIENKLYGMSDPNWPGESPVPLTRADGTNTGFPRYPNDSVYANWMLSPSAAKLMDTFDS
# UniProt Q9BRS2: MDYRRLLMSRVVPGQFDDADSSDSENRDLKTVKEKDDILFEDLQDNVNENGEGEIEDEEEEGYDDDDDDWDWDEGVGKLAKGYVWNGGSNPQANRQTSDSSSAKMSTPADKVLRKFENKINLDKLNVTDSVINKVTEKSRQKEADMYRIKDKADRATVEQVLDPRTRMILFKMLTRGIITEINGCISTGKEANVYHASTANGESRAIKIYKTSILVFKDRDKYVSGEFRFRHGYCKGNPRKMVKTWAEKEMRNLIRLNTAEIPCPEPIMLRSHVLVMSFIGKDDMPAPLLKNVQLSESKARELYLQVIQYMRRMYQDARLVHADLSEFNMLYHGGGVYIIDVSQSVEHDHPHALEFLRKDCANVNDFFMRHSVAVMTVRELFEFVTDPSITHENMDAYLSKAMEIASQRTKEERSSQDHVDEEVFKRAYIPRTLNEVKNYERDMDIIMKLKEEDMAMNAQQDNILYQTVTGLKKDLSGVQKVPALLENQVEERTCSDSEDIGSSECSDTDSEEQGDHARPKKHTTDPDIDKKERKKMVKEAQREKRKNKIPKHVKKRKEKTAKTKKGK
# UniProt Q13546: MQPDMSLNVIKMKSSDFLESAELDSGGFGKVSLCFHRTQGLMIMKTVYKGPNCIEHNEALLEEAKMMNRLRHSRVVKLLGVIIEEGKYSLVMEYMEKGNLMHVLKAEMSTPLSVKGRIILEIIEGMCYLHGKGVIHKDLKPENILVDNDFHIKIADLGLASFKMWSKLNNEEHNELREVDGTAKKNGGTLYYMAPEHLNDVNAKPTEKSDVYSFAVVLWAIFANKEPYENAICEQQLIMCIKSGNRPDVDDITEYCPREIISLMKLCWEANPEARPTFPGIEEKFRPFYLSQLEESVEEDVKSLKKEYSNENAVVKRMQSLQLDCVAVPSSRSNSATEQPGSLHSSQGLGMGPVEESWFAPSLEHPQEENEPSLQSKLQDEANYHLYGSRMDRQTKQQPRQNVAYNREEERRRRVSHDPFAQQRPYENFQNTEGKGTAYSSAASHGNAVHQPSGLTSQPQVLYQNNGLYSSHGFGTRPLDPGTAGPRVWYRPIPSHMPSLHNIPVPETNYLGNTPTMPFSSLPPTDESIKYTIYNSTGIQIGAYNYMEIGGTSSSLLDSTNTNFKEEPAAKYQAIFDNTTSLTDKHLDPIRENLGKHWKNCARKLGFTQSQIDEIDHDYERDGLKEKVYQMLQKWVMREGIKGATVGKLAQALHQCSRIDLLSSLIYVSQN
# Where a name gives a salt, the structure may show the parent alone. Some of the results follow. Hit calls seldom repeat between salt and free forms of one compound.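 Kinases were expressed as nanoluciferase fusions in K562 cells and luminescence was read every 4 h between 2 and 18 h as percent of control, DMSO set to 100% and a positive control to 0%. A time point counts as decreased when the signal drops significantly (2 sigma). The hit call is the authors' own, does not follow from the count of time points alone, and its rule is not shown.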
# Assays:
# Test in all cases: number of time points (of 5) at which kinase-Nluc abundance scored as decreased, DMSO-normalised (count); higher = more persistent destabilization
# Details in all cases: K562; 2-18 h
# PRKCA = PRKCA (UniProt P17252)
# PTK2 = PTK2 (UniProt Q05397)
# PTK2B = PTK2B (UniProt Q14289)
# RAF1 = RAF1 (UniProt P04049)
# [1] = molecular target: RAF1_S257L (clone: RAF1_mut) (UniProt P04049)
# RET = RET (UniProt P07949)
# [2] = molecular target: RET_M918T (clone: RET_mut) (UniProt P07949)
# RIOK1 = RIOK1 (UniProt Q9BRS2)
# RIPK1 = RIPK1 (UniProt Q13546)
# RIPK2 = RIPK2 (UniProt O43353)
SMILES,number of time points (PRKCA),number of time points (PTK2),number of time points (PTK2B),number of time points (RAF1),number of time points [1],number of time points (RET),number of time points [2],number of time points (RIOK1),number of time points (RIPK1),number of time points (RIPK2)
C=C1C(=O)O[C@H]2C[C@H](C)C(/C=C/C(C)=O)=CC[C@H]12 [Xanthatin] (2.5 µM),0,0,0,0,0,0,0,0,0,0
CNC(=O)c1c(F)cccc1Nc1nc(Nc2cc3c(cc2OC)CCN3C(=O)CN(C)C)nc2[nH]ccc12 (10 µM),0,1,0,0,0,0,0,0,0,0
FC(F)c1nc2ccccc2n1-c1nc(N2CCOCC2)nc(N2CCOCC2)n1 (2 µM),0,0,0,0,0,0,0,0,0,0
COc1cc2nccc(Oc3ccc(NC(=O)NC4CC4)c(Cl)c3)c2cc1C(N)=O [Lenvatinib (mesylate)] (10 µM),0,1,0,0,4,0,0,2,2,3
NC(=O)c1ccc2[nH]ccc2c1 (10 µM),0,0,0,0,0,0,0,0,0,0
Cc1ccc2cc(-c3c(C)ccc(C(=O)c4c(-c5ccccc5)n(C)n(-c5ccccc5)c4=O)c3N)ccc2n1 (2.5 µM),0,0,0,0,0,0,0,0,0,0
C=C(CC[C@@H](C(=O)O)[C@H]1[C@H](O)C[C@@]2(C)C3=C(CC[C@]12C)[C@@]1(C)CC[C@H](OC(C)=O)C(C)(C)[C@@H]1CC3)C(C)C [Pachymic acid] (10 µM),0,0,0,0,0,0,0,0,0,0
COc1cc2c(N3CCN(C(=O)Nc4ccc(OC(C)C)cc4)CC3)ncnc2cc1OCCCN1CCCCC1 [Tandutinib] (10 µM),0,0,0,0,0,0,0,0,0,0
CCc1c(C(=O)NNC(=O)C(O)c2cc(F)cc(F)c2)ccc(O)c1C (stereo not given) (10 µM),0,0,0,0,0,0,0,0,0,0
C[C@@H](c1ccc(F)cc1)n1nnc2cnc3ccc(-c4ccc5ocnc5c4)cc3c21 (10 µM),0,0,0,0,0,0,0,0,0,0
NC(=O)c1nc(Nc2ccccc2)sc1NC(=O)C1CCCCC1 (10 µM),0,0,0,0,0,0,0,0,0,0
COc1ccc(Cl)c(Nc2nc3ccccc3nc2NS(=O)(=O)c2cccc(NC(=O)C(C)(C)N)c2)c1 [Pilaralisib] (10 µM),0,0,0,0,0,0,0,0,0,0
Cc1cc(Nc2ncnc3ccc(NC4=NC(C)(C)CO4)cc23)ccc1Oc1ccn2ncnc2c1 [Tucatinib] (2.5 µM),0,0,0,0,0,0,0,0,0,0
Cc1cc2ncc(-c3ccc(O)c(O)c3)nc2cc1C [Tyrphostin AG1433] (10 µM),0,0,0,0,0,0,0,0,0,4
Cc1nc(-c2cn3c(n2)-c2ccc(-c4cnn(C(C)(C)C(N)=O)c4)cc2OCC3)n(C(C)C)n1 [Taselisib] (10 µM),0,0,0,0,0,0,0,0,0,0
O=C(NOCC(O)CO)c1cc(Br)c(F)c(F)c1Nc1ccc(I)cc1F (stereo not given) (2.5 µM),0,0,0,0,0,0,0,0,0,0
Cn1cc(-c2ccc3c(c2)CCN3C(=O)Cc2cccc(C(F)(F)F)c2)c2c(N)ncnc21 (2.5 µM),0,0,0,0,0,0,0,0,0,0
S=C(SSC(=S)N1CCOCC1)N1CCOCC1 (10 µM),0,1,0,3,2,0,0,0,3,4
c1ccc(-c2[nH]ncc2-c2ccnc3ccccc23)nc1 (10 µM),0,0,0,0,0,0,0,0,0,0
C[C@H](c1ccnc(Nc2nc3ccc(-c4cc(N(C)C)ncn4)cc3[nH]2)c1)N1CCN(C(=O)CC(F)(F)F)CC1 (2.5 µM),0,0,0,0,0,0,0,0,0,0
Cn1cc(-c2ccc3nnc(Sc4ccc5ncccc5c4)n3n2)cn1 (10 µM),0,0,0,0,0,0,0,0,0,0
Cn1cc(-c2cnn3c(N)c(Br)c([C@@H]4CCCNC4)nc23)cn1 (2.5 µM),0,0,2,2,3,2,1,1,0,1
COc1cc2nccc(Oc3ccc(NC(=O)NC4CC4)c(Cl)c3)c2cc1C(N)=O [Lenvatinib] (10 µM),0,2,0,0,0,0,0,0,0,0
NC(=O)c1nnc(N[C@@H]2CCCC[C@@H]2N)nc1Nc1cccc2cc[nH]c12 (10 µM),0,1,0,0,3,0,0,0,0,0

# Quoted at random: 2 entries already listed, in no set order.
SMILES,number of time points (PRKCA),number of time points (PTK2),number of time points (PTK2B),number of time points (RAF1),number of time points [1],number of time points (RET),number of time points [2],number of time points (RIOK1),number of time points (RIPK1),number of time points (RIPK2)
Cc1nc(-c2cn3c(n2)-c2ccc(-c4cnn(C(C)(C)C(N)=O)c4)cc2OCC3)n(C(C)C)n1 [Taselisib] (10 µM),0,0,0,0,0,0,0,0,0,0
FC(F)c1nc2ccccc2n1-c1nc(N2CCOCC2)nc(N2CCOCC2)n1 (2 µM),0,0,0,0,0,0,0,0,0,0

# Further entries.

SMILES,number of time points (PRKCA),number of time points (PTK2),number of time points (PTK2B),number of time points (RAF1),number of time points [1],number of time points (RET),number of time points [2],number of time points (RIOK1),number of time points (RIPK1),number of time points (RIPK2)
Nc1ncnc2c1c(-c1ccc(Oc3ccccc3)cc1)nn2C1CCCC1 (2.5 µM),0,0,0,0,0,0,0,0,0,0
C[C@@]1(c2ncncc2F)NC(=O)c2cc(-c3cn[nH]c3)ccc21 (10 µM),0,0,0,0,0,0,0,0,0,0
Nc1cc(C(F)(F)F)c(-c2cc(N3CCOCC3)nc(N3CCOCC3)n2)cn1 [Buparlisib (Hydrochloride)] (2.5 µM),0,0,0,2,0,0,0,0,0,0
CCC(C)N1c2ccccc2C(=O)N(C)c2cnc(Nc3ccc(C(=O)N4CCC(N5CCN(C)CC5)CC4)cc3OC)nc21 (stereo not given) (2.5 µM),0,0,0,0,0,0,0,0,0,0
COc1cc(/C=C/C(=O)NCC(O)c2ccc(O)cc2)ccc1O (stereo not given) [N-Feruloyloctopamine] (2.5 µM),0,0,0,0,0,0,0,0,0,0
CN(C)CCSSCCNC(=O)C1CCN(C(=O)CSc2ccc(Cl)cc2)CC1 (10 µM),0,0,0,0,0,0,0,0,0,0
C=CC(=O)Nc1cccc(Nc2nc(Nc3ccc(NC4CN(CCF)C4)cc3OC)ncc2C(F)(F)F)c1 (2.5 µM),0,0,0,0,0,0,0,0,0,0
Cc1cc(O)c2c(c1)C(=O)c1cc(O)cc(O)c1C2=O [Emodin] (10 µM),0,0,0,0,0,0,0,0,0,0
O=C(O)CCC(=O)Nc1ccc(Br)cn1 [Bikinin] (10 µM),0,0,0,0,0,0,0,0,0,0
C[C@@H](c1ccc(-c2ccccc2)c(F)c1)c1cc(NC(=N)N2CCOCC2)on1 [Rimacalib] (10 µM),0,0,0,0,0,0,0,0,0,0
O=C1NC(=O)/C(=C/c2ccc3nccnc3c2)S1 (10 µM),0,0,0,0,0,0,0,0,0,0
N#CCC1CCN(c2nc(Nc3ccc(N4CCC(O)CC4)cc3)c3c(=O)[nH]ncc3n2)CC1 [Gusacitinib] (10 µM),0,2,0,2,0,0,0,0,0,0
N#Cc1c(C2CCNCC2)cc(-c2c(O)cccc2OCC2CC2)nc1N [ACHP (Hydrochloride)] (10 µM),0,0,0,0,0,0,0,0,0,0
CCN1CCN(Cc2ccc(Nc3ncc(F)c(-c4cc(F)c5nc(C)n(C(C)C)c5c4)n3)nc2)CC1 [Abemaciclib (methanesulfonate)] (10 µM),0,2,0,0,2,0,1,0,3,0
CC(=O)NC1CC(n2cnc(NC(=O)Cc3ccc4ccccc4c3)c2)C1 (stereo not given) (10 µM),0,0,0,0,0,0,0,0,0,0
O=c1[nH]c(=O)n([C@@H]2O[C@H](CO)[C@@H](O)[C@@H]2O)cc1/C=C/Br [Sorivudine] (10 µM),0,0,0,0,0,0,0,0,0,0
C[C@@H]1COCCN1c1cc(C2([S@@](C)(=N)=O)CC2)nc(-c2ccnc3[nH]ccc23)n1 [(S)-Ceralasertib] (10 µM),0,0,0,0,0,0,0,0,0,0
COc1ccc(-c2ccc3c(N4CCOCC4)nc(N4C[C@@H](C)O[C@@H](C)C4)nc3n2)cc1CO (2.5 µM),0,0,0,0,0,0,0,0,0,0
CCOc1ccc2cc(-c3nn(CC4CCN(C)CC4)c4ncnc(N)c34)ccc2n1 (10 µM),0,0,0,0,0,0,0,0,0,0
Cn1cnc2c(F)c(Nc3ccc(Br)cc3Cl)c(C(=O)NOCCO)cc21 [Selumetinib (sulfate)] (10 µM),0,0,0,0,0,0,0,0,0,0
CCNc1nc(Nc2cc(F)c(C(=O)N3CCOCC3)cc2OC)ncc1C(F)(F)F [GNE-7915 (tosylate)] (10 µM),0,0,0,0,0,0,0,0,0,0
Cn1cnc(Cn2ccc3ccc(CNCc4[nH]c5ccccc5c4[C@H]4NC(=O)c5ccc(O)cc54)cc32)c1 (10 µM),0,0,0,0,0,0,0,0,0,0
Cc1c(NC(=O)c2cccn(-c3ccc(F)cc3)c2=O)ccc(Oc2ccnc(NC(=O)C3CC3)c2)c1C (2 µM),0,0,0,0,0,0,0,0,0,0
